Results from US20260078175A1 (Boehringer Ingelheim, published 2026).
Results are given in words; binding and its absence hold for the method and conditions named. Some binding calls cover weakened binding; strength is not graded here.

Molecular target: T1, Rabbit Sema3A (rabbit, UniProt G1T285 21-770)
T1 construct: Construct not described
T1 sequence: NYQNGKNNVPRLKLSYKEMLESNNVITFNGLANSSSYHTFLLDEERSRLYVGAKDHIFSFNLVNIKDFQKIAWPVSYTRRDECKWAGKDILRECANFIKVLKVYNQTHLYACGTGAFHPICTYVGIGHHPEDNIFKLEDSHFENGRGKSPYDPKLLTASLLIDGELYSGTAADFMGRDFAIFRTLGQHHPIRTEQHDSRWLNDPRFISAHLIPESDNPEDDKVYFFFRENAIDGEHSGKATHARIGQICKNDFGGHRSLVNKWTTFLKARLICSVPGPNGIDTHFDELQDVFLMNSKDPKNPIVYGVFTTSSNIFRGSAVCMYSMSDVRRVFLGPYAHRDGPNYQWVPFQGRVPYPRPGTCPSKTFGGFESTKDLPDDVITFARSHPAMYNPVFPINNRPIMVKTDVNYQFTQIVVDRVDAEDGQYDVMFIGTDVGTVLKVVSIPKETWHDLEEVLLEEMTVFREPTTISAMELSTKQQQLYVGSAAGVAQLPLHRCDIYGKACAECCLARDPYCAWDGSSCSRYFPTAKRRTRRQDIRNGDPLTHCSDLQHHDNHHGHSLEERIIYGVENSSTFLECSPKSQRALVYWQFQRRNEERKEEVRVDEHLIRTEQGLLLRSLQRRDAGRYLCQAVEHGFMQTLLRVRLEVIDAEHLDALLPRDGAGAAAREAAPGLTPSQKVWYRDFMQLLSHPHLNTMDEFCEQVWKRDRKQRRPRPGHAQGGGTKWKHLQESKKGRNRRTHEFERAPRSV
Assay: SPR, comparison with Samsung scFv 1-3

binding: binds
B1: Antibody of the invention (clone I) (antibody, human IgG1, kappa, L234A L235A, V domains shown)
VH: EVQLVESGGGLVQPGGSLRLSCAASGFTFSSYYMSWVRQAPGKGLEWVSTIIKSGGYAYYPDSVKDRFTISRDNSKNTLYLQMSSLRAEDTAVYYCVRGGQGAMDYWGQGTTVTVSS
VL: EIVLTQSPATLSLSPGERATLSCRASQSIGDYLHWYQQKPGQAPRLLIKYASQSISGIPARFSGSGSGTDFTLTITSLEPEDFAVYYCQQGYSFPYTFGGGTKLEIKR
notes: also called clone 1; anti-Sema3A antibody of the invention
